PubChem BioAssay AID720710, VTT Finland – 2013

Assay: 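siRNAs sensitising CCNE1-overexpressing U-2 OS cells to replication stress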 (primary screen)
Cell system: human U-2 OS bone cancer cells, parental and a cyclin E (CCNE1) overexpressing line
Reagent: single siRNA against human genes, 1 µM siRNA in the printed spot mix
Time to read-out: 67 h
Conditions: half the arrays: hydroxyurea 2 mM for 16 h, then 3 h recovery; other arrays untreated
Detection: 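DNA synthesis measured as imaged EdU uptake per nucleus (DAPI) at 67 h, normalised to subgrid median and given as z-score versus non-targeting controls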
Direction: EdU z-score, cyclin E line, hydroxyurea and EdU z-score, parental, hydroxyurea: higher = more DNA synthesis than non-targeting controls
In all, the deposit lists about 1,380 reagents; below is a random part of them. 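One array per condition without replicates; hydroxyurea arrays received 2 mM for 16 h plus 3 h recovery.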 The numbers tell different reagents against one gene apart. Not all columns of the deposit are shown.

For ZNFX1 #1, the values are EdU z-score, cyclin E line, hydroxyurea -2.17; EdU z-score, parental, hydroxyurea -2.37.
Against ZNFX1 #2 the deposit lists EdU z-score, cyclin E line, hydroxyurea 1.62; EdU z-score, parental, hydroxyurea -2.09.
For LIG1 #1, the entry reads EdU z-score, cyclin E line, hydroxyurea -0.245; EdU z-score, parental, hydroxyurea -1.96.
For LIG1 #2, the values are EdU z-score, cyclin E line, hydroxyurea 1.24; EdU z-score, parental, hydroxyurea -1.57.
With knock-down of DNMT3A #1, the record shows EdU z-score, cyclin E line, hydroxyurea 0.512; EdU z-score, parental, hydroxyurea -2.26.
DNMT3A #2 showed EdU z-score, cyclin E line, hydroxyurea 1.71; EdU z-score, parental, hydroxyurea 0.203.
Depletion of SLX1B #1 came out at: EdU z-score, cyclin E line, hydroxyurea -0.85; EdU z-score, parental, hydroxyurea -0.783.
With knock-down of SLX1B #2 the results were EdU z-score, cyclin E line, hydroxyurea -0.0928; EdU z-score, parental, hydroxyurea 0.736.
With knock-down of UBE2V2 #1, the screen gave EdU z-score, cyclin E line, hydroxyurea 0.135; EdU z-score, parental, hydroxyurea -0.813.
With knock-down of UBE2V2 #2, the screen gave EdU z-score, cyclin E line, hydroxyurea 1.17; EdU z-score, parental, hydroxyurea -0.129.
Against H2BC13 #1, the values are EdU z-score, cyclin E line, hydroxyurea -1.66; EdU z-score, parental, hydroxyurea -1.25.
After knock-down of H2BC13 #2 the results were EdU z-score, cyclin E line, hydroxyurea -1.03; EdU z-score, parental, hydroxyurea 1.57.
Depletion of PMS2P5 #1 came out at: EdU z-score, cyclin E line, hydroxyurea -1.2; EdU z-score, parental, hydroxyurea -1.53.
Against PMS2P5 #2, the entry reads EdU z-score, cyclin E line, hydroxyurea -1.19; EdU z-score, parental, hydroxyurea -1.36.
CDC45 #1 gave EdU z-score, cyclin E line, hydroxyurea -0.0371; EdU z-score, parental, hydroxyurea 0.00606.
Knock-down of CDC45 #2 gave: EdU z-score, cyclin E line, hydroxyurea 0.094; EdU z-score, parental, hydroxyurea 1.8.
Silencing of CDKN2D #1 came out at: EdU z-score, cyclin E line, hydroxyurea -0.249; EdU z-score, parental, hydroxyurea -4.28.
After knock-down of CDKN2D #2 the results were EdU z-score, cyclin E line, hydroxyurea 1; EdU z-score, parental, hydroxyurea -0.735.
Silencing of CBX4 #1 gave: EdU z-score, cyclin E line, hydroxyurea -0.815; EdU z-score, parental, hydroxyurea 0.58.
For CBX4 #2 the deposit lists EdU z-score, cyclin E line, hydroxyurea -0.205; EdU z-score, parental, hydroxyurea 0.635.
With knock-down of MAPK12 #1, the record shows EdU z-score, cyclin E line, hydroxyurea -0.732; EdU z-score, parental, hydroxyurea -1.25.
Against MAPK12 #2 the deposit lists EdU z-score, cyclin E line, hydroxyurea -0.489; EdU z-score, parental, hydroxyurea -0.252.
Knock-down of SMARCC2 #1 gave: EdU z-score, cyclin E line, hydroxyurea -1.39; EdU z-score, parental, hydroxyurea -0.362.
SMARCC2 #2 showed EdU z-score, cyclin E line, hydroxyurea 0.165; EdU z-score, parental, hydroxyurea 1.76.
Silencing of NEIL1 #1 gave: EdU z-score, cyclin E line, hydroxyurea -1.06; EdU z-score, parental, hydroxyurea 0.751.
After knock-down of NEIL1 #2 the results were EdU z-score, cyclin E line, hydroxyurea -0.498; EdU z-score, parental, hydroxyurea 0.903.
Depletion of UBA1 #1 resulted in: EdU z-score, cyclin E line, hydroxyurea -0.675; EdU z-score, parental, hydroxyurea -2.28.
Against UBA1 #2, the entry reads EdU z-score, cyclin E line, hydroxyurea 2.39; EdU z-score, parental, hydroxyurea -0.434.
Depletion of NSMCE1 #1 resulted in: EdU z-score, cyclin E line, hydroxyurea -2.15; EdU z-score, parental, hydroxyurea -2.41.
Against NSMCE1 #2, the entry reads EdU z-score, cyclin E line, hydroxyurea -0.39; EdU z-score, parental, hydroxyurea 0.764.
Silencing of SMG6 #1 gave: EdU z-score, cyclin E line, hydroxyurea -0.981; EdU z-score, parental, hydroxyurea 0.461.
SMG6 #2 showed EdU z-score, cyclin E line, hydroxyurea -0.422; EdU z-score, parental, hydroxyurea 0.694.
For H2AC6 #1, the entry reads EdU z-score, cyclin E line, hydroxyurea 0.583; EdU z-score, parental, hydroxyurea -2.97.
Silencing of H2AC6 #2 came out at: EdU z-score, cyclin E line, hydroxyurea 2.03; EdU z-score, parental, hydroxyurea 1.09.
PMS1 #1 gave EdU z-score, cyclin E line, hydroxyurea -1.09; EdU z-score, parental, hydroxyurea -4.26.
Silencing of PMS1 #2 came out at: EdU z-score, cyclin E line, hydroxyurea -0.364; EdU z-score, parental, hydroxyurea 0.681.
After knock-down of EZH1 #1, the record shows EdU z-score, cyclin E line, hydroxyurea -0.665; EdU z-score, parental, hydroxyurea 1.35.
Knock-down of EZH1 #2 gave: EdU z-score, cyclin E line, hydroxyurea 0.349; EdU z-score, parental, hydroxyurea 2.13.
SESN2 #1 scored EdU z-score, cyclin E line, hydroxyurea 0.778; EdU z-score, parental, hydroxyurea -0.389.
SESN2 #2 showed EdU z-score, cyclin E line, hydroxyurea 0.781; EdU z-score, parental, hydroxyurea 1.45.
